Test results taken from paper PMC12191679.
No constants are given. Whether binding was seen depends on the method and setting. In cells and extracts the contact can be indirect. Some entries that bind do so weakly or less than the wild type. For some assays here: Tags and fused reporters may be left off the sequences shown.

Chains of the proteins cited; added tags and fusions are not shown.
UniProt Q5SYB0: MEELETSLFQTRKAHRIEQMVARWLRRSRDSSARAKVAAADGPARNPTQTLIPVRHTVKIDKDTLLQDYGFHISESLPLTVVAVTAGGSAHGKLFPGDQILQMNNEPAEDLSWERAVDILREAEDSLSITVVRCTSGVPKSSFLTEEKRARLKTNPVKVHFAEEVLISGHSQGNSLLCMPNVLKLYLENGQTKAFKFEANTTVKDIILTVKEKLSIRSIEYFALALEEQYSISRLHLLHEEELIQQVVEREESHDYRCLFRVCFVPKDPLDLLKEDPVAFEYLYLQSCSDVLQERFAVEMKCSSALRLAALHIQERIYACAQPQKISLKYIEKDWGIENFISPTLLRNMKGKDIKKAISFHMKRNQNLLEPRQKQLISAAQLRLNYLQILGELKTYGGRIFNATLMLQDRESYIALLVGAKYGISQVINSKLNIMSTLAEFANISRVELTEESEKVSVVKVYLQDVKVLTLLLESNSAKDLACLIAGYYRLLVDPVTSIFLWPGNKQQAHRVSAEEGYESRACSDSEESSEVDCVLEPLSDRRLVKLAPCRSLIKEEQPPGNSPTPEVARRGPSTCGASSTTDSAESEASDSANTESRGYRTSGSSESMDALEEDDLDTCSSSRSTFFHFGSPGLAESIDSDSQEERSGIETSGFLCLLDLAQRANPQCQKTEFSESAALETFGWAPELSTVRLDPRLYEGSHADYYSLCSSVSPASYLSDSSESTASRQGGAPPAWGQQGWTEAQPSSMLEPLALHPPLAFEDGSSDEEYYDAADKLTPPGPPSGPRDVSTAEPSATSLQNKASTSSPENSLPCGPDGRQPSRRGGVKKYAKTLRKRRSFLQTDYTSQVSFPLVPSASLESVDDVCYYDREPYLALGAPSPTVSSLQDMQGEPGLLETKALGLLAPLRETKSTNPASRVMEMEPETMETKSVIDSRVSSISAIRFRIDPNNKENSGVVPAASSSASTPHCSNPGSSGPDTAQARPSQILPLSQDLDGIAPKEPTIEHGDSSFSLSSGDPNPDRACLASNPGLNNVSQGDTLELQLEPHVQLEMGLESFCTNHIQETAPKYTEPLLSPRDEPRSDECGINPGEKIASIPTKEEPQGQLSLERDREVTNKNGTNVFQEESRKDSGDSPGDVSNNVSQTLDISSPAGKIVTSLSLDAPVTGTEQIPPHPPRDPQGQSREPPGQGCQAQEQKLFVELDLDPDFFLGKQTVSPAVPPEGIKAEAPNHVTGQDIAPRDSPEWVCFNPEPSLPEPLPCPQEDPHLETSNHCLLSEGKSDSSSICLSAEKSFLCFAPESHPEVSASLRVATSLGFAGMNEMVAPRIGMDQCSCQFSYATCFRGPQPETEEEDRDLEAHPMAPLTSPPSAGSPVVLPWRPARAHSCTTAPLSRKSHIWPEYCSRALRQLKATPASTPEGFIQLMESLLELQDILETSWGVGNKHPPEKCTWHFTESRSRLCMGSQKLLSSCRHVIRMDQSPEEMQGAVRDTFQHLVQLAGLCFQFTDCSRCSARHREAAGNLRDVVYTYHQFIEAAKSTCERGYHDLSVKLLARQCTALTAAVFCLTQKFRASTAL

Legend:
[1] = target: T1, FBXO10 (endogenous, HepG2) (human (endogenous in HepG2)) (UniProt Q9UK96); experiment: co-IP; endogenous proteins in HepG2 cells lysed in NETN buffer; immunoprecipitation with an antibody against FBXO10; immunoblot
T1 sequence: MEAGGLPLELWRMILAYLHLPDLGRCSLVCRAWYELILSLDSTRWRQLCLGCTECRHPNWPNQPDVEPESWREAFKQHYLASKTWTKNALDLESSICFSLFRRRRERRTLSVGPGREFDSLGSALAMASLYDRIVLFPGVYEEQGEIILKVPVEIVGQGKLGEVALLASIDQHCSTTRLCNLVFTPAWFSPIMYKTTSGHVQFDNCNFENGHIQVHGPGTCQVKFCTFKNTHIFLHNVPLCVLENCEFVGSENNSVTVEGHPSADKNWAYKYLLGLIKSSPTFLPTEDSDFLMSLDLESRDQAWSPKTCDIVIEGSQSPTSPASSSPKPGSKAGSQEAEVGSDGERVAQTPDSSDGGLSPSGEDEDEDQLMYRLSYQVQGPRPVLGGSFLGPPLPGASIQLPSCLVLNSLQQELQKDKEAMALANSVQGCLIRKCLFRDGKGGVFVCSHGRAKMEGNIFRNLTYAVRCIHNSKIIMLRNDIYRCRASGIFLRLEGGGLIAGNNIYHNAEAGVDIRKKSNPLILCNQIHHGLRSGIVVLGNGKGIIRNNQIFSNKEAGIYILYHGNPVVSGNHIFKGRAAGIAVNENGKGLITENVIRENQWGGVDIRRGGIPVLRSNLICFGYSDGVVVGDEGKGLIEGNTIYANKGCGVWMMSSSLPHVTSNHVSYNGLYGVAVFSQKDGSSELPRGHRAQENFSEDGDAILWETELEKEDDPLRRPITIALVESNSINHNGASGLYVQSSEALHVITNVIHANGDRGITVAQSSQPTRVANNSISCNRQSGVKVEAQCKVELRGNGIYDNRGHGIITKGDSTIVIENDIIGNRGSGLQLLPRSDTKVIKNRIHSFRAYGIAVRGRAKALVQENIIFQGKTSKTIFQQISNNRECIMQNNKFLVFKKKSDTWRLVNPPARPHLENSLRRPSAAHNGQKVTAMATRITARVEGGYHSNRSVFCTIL

Flag-FBXO10 (human) = target: T2, Flag-FBXO10 (human) (UniProt Q9UK96); experiment: co-IP; HEK-293T cells transfected 24 h with Flag-FBXO10, lysed in NETN buffer; Anti-Flag Affinity Gel 4 h, three washes with NETN; immunoblot with FRMPD1 and Flag antibodies
T2 sequence: T1 sequence

binding [1] | binding (Flag-FBXO10 (human)) | Substance
binds | – | FRMPD1 (endogenous, HepG2) (from UniProt Q5SYB0 1-1578)
– | binds | FRMPD1 (endogenous, HEK-293T) (from UniProt Q5SYB0 1-1578)
